The record followed here is patent US20090227575A1, “7H-PYRROLO[2,3-H]QUINAZOLINE COMPOUNDS, THEIR USE AS mTOR KINASE AND PI3 KINASE INHIBITORS, AND THEIR [sequence]” (Wyeth, priority 2008, published 2009).

The target in one test is human SMG-1 (hSMG-1) (Homo sapiens, UniProt Q96Q15). The experiment in a line: hSMG-1 kinase assay (DELFIA). The note with it: read-out: hSMG1 IC50. The test is classed as biochemical.
A further test deals with Human mTOR (Homo sapiens, UniProt P42345). The experiment in a line: mTOR kinase assay (DELFIA format, purified enzyme). The test is classed as biochemical. Details: FLAG. The note with it: read-out: TOR Kinase IC50.

Turning to `Cn1ccc2c3nc(-c4ccc(NC(=O)NCCC5=CCCCC5)cc4)nc(N4CCOCC4)c3ccc21` [Example 103, 1-(2-cyclohex-1-en-1-ylethyl)-3-[4-(7-methyl-4-morpholin-4-yl-7H-pyrrolo[2,3-h]quinazolin-2-yl)phenyl]urea], the IC50 is greater than 20 µM on human SMG-1 (hSMG-1) and 13.8 µM on Human mTOR.
